The results in this text go back to patent US20230081426A1, “COMPOUNDS AND METHODS FOR KRAS MODULATION AND INDICATIONS THEREFOR” (Plexxikon Inc., priority 2020, published 2023).

As a reminder, the IC50 is the concentration needed to halve the response being measured.

Experiment [1] addresses G12D-mutant human KRAS (amino acid residues 1-188) (Homo sapiens, UniProt P01116, G12D). Description: KRAS Binding Disruption Assay (AlphaScreen; biotinylated KRpep-2d analogue or RAF1-RBD), G12D. As to conditions: read-out: KRAS GMean IC50 (uM) MUTATION: G12D, geometric mean.
Experiment [2] addresses G12C-mutant human KRAS (amino acid residues 1-188) (Homo sapiens, UniProt P01116, G12C). Briefly: KRAS Binding Disruption Assay (AlphaScreen; biotinylated KRpep-2d analogue or RAF1-RBD), G12C. As to conditions: read-out: KRAS GMean IC50 (uM) MUTATION: G12C, geometric mean. For orientation: In Alpha technology, singlet oxygen from a donor bead excites a nearby acceptor bead.

Experiment [3] addresses G12V-mutant human KRAS (amino acid residues 1-188) (Homo sapiens, UniProt P01116, G12V). Briefly: KRAS Binding Competition Assay (AlphaScreen; biotinylated KRpep-2d analogue), G12V. Particulars: read-out: KRAS GMean IC50 (uM) MUTATION: G12V, geometric mean.

Structures were worked out from names or drawings and are uncertain.

`CN1CCC[C@H]1COc1nc(N2CC3CCC(C2)N3)c2cc(C3CC3)c(-c3cc(O)cc4ccccc34)c(F)c2n1`: the results for the 50% inhibitory concentration (IC50) in experiment [1], in experiment [2] and in experiment [3] were 0.0001 to 10 µM, 0.0001 to 10 µM and 10 to 100 µM, respectively.
